{
  "source": "paper PMC4154712",
  "about": "(Journal of medicinal chemistry, 2014)",
  "key": {"[1]": {"test_system": "MCF-7 human breast carcinoma cells", "assay": "cells", "settings": "MCF7, 96 h, read-out: MCF-7 IC50 ± SD"}, "[2]": {"test_system": "A549 (human lung carcinoma) cells", "settings": "read-out: IC50 ± SD A549; MTT method; 48 h; ref 10b; cited from earlier work"}, "[3]": {"test_system": "HT29 (human colon adenocarcinoma) cells", "settings": "read-out: IC50 ± SD HT-29; MTT method; 48 h; ref 10b; cited from earlier work"}, "[4]": {"test_system": "HCT116 (human colon carcinoma cells)", "settings": "read-out: IC50 ± SD HCT116; ref 10b; cited from earlier work"}, "[5]": {"test_system": "HeLa (human cervical carcinoma) cells", "settings": "read-out: IC50 ± SD HeLA; MTT method; 48 h; ref 10b; cited from earlier work"}},
  "data": [
    {"molecule": "COc1cc2c(c(OC)c1OC)-c1ccc(OC)c(=O)cc1[C@@H](NC(C)=O)CC2", "note": "[Compound 1, Colchicine]", "values": [
      {"measurement": "IC50", "setting": "[1]", "value": "5 ± 1", "unit": "nM"},
      {"measurement": "IC50", "setting": "[2]", "value": "20 ± 8", "unit": "nM"},
      {"measurement": "IC50", "setting": "[3]", "value": "18 ± 4", "unit": "nM"},
      {"measurement": "IC50", "setting": "[4]", "value": "20 ± 2", "unit": "nM"},
      {"measurement": "IC50", "setting": "[5]", "value": "28 ± 9", "unit": "nM"}
    ]}
  ]
}
